The target of assay [1] is T1, CD47 (mouse (endogenous in AB1 cells)) (UniProt Q61735).
T1 sequence: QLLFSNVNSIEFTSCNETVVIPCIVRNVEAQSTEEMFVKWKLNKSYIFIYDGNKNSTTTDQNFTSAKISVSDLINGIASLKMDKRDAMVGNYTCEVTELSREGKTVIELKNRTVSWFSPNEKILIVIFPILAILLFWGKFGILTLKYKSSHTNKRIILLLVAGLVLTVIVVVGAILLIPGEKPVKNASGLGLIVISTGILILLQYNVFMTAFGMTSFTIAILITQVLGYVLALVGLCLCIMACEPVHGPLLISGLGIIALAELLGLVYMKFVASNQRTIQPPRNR
In words: proximity ligation; fixed MM (AB1) cells on coverslips, resting (PBS) or treated overnight with 400 nM BoxA or 10 nM CXCL12; primary antibodies to CD47 together with anti-CXCR4, anti-RAGE or anti-TLR4; Duolink probes; confocal imaging, signal per cell quantified.

Sequences of proteins named here, by UniProt entry; tags and fusion partners are left off. Residues count along the entry.
UniProt P70658: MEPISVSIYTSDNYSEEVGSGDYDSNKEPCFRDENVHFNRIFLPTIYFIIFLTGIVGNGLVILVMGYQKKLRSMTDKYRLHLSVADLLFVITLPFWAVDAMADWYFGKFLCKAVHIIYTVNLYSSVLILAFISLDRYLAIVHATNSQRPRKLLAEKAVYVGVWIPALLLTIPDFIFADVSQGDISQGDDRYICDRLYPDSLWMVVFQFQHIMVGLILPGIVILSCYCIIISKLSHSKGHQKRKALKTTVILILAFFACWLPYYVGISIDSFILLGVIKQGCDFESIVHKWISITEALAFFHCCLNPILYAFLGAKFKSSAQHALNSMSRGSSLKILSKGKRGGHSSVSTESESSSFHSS
UniProt Q9QUK6, residues 26-835: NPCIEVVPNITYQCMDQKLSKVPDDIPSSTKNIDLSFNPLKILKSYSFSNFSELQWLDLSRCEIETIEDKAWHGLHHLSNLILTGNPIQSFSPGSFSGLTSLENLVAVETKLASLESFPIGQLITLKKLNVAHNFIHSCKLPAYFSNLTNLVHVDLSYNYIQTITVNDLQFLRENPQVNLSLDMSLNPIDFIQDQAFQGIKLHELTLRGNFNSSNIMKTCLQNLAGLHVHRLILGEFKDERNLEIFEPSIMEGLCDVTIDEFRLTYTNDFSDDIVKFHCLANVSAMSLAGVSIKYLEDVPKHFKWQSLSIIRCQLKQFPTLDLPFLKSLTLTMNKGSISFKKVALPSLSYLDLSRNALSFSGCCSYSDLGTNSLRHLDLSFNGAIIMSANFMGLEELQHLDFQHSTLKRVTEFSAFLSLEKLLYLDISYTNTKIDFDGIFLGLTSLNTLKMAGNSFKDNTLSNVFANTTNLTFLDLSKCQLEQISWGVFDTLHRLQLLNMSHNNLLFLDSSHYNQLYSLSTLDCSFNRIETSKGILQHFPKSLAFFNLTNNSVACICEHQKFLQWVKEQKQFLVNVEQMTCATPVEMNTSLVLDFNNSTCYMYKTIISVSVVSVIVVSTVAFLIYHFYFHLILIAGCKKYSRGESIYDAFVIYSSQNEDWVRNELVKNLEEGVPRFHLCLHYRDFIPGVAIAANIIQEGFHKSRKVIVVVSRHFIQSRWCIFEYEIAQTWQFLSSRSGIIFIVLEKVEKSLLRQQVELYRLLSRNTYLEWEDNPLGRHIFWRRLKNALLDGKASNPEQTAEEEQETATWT
UniProt Q62151, residues 23-402: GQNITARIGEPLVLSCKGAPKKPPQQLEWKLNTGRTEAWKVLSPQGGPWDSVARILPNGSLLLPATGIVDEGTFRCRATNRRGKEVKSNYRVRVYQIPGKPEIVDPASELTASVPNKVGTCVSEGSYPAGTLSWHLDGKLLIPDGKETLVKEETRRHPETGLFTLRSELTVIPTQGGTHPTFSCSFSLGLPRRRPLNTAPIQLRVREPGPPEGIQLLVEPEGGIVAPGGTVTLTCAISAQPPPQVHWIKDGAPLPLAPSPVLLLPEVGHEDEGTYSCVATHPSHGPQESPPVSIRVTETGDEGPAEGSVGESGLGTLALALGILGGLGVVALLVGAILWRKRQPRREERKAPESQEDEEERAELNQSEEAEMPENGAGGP

For assay [2], the target named is CXCR4 (mouse (endogenous in AB1 cells)) (UniProt P70658). In words: proximity ligation; fixed MM (AB1) cells, overnight 400 nM BoxA or PBS, permeabilized or not; PLA performed on one receptor at a time (CD47, CXCR4, RAGE, TLR4) to detect pairs of identical receptor molecules.
Assay [3] concerns the target TLR4 (mouse (endogenous in AB1 cells)) (UniProt Q9QUK6). The assay is described as above.
The target of assay [4] is RAGE (mouse (endogenous in AB1 cells)) (UniProt Q62151). The assay is described as above.
For assay [5], the target named is T2, CD47 (mouse (endogenous in AB1 cells)), Q61735.
T2 chain: T1 sequence
The description is as above. The conditions noted are these: remark: other sources report otherwise.

No constants are given. Whether binding was seen depends on the method and setting. Binding seen in cells or lysates may run through a third protein. Some results given as binding are weak or reduced against the parent protein; the word gives no strength.

The results in this text go back to paper PMC8185548.

Regarding “CXCR4 (from UniProt P70658 1-359) (receptor)”, the binding result in assay [1] and in assay [2] was “binds” each time. Take “TLR4 (from UniProt Q9QUK6 26-835) (receptor)”: in assay [3], the binding entry is “binds”.

For “RAGE (from UniProt Q62151 23-402) (receptor)”, the binding entry in assay [4] is given as “binds”.

B1: CD47, Q61735 19-303 (protein)
chain: T1 sequence
For the molecule B1, the binding result in assay [5] is listed as “binds”.
